From publication doi:10.1101/495820
The exact form of at least one protein or probe is not confirmed. The comparison behind a weaker result is the experiment's own reference, which may not be listed here. Where a protein sequence is shown, tags need not be part of it.

Molecular target: T1, SmcH-CC100(3A-hng) K666A,K667A,K668A (Bacillus subtilis) (UniProt P51834)
T1 sequence (looked up, limits assumed): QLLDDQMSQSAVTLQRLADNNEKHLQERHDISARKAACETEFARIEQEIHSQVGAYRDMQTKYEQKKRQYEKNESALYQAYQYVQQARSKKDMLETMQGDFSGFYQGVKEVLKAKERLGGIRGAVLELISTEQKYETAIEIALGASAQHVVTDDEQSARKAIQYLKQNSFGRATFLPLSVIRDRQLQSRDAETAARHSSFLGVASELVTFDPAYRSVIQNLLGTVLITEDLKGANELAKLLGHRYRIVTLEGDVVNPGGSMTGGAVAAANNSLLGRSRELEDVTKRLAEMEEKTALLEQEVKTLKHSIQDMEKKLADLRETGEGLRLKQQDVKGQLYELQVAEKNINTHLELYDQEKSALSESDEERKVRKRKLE
Experiment: fluorescence anisotropy

TTAGTTGTTCGTAGTGCTCGTCTGGCTCTGGATTACCCGC (double strand) [40 bp random-sequence dsDNA]
binding result: binds more weakly
